Reference: patent US20190202914A1
No constants are given. Whether binding was seen depends on the method and setting. Some binding calls cover weakened binding; strength is not graded here.

Protein sequences, listed by entry. Tags and fused reporters are not part of them. Lines headed by an entry give the natural chain unless they say otherwise; changes in a name come on top.
UniProt P16410: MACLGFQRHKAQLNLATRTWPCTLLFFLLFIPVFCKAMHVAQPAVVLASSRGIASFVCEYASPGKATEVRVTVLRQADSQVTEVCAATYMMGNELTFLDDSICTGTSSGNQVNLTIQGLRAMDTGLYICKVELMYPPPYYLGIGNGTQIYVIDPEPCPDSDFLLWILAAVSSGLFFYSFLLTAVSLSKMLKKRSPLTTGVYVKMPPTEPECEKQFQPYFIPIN

Target: human CTLA-4 expressed on cells (293-hCTLA-4 cells; CTLA-4-expressing CHO-K1 cells) (human) (UniProt P16410)
Assay: flow cytometry on 293F-hCTLA-4 cells

- binding: binds
B1: CL20′-eA (antibody, human IgG1, V domains shown)
VH: EVQLVESGGGLVQPGGSLRLSCAASGFTFSNYWMHWVRQAPGKGLVWVSRINSDGSNTTYADSVKGRFTISRDNAKNTLYLQMNSLRAEDTAVYYCARWFGEHYYGMDVWGQGTTVTVSS
